Measured values taken from patent US20050009137A1 (CEDARS SINAI MEDICAL CENTER, published 2005).
No constants are given. Whether binding was seen depends on the method and setting. In cells and extracts the contact can be indirect. Some results given as binding are weak or reduced against the parent protein; the word gives no strength.

The chains behind the UniProt entries cited, without tags or fusion partners. Residues count along the entry.
UniProt P03372, residues 246-595: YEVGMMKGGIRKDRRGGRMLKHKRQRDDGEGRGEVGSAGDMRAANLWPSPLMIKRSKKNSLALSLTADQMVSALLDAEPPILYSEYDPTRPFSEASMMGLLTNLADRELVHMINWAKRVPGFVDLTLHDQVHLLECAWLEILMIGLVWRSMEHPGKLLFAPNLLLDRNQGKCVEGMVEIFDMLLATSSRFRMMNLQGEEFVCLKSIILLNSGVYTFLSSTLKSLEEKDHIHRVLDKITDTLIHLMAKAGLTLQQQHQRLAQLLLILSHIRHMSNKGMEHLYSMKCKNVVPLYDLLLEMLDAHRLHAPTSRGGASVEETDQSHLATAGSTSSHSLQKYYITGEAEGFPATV

Assays:
[1] = biological target: GST-fusion protein with the ligand-binding domain (LBD) of ERα (residues 246-595) (UniProt P03372); assay: GST pull-down from extracts of cells overexpressing IEBP, blot with anti-hsp27 antibody (FIG. 6C)
[2] = biological target: GST-fusion protein with the ligand-binding domain (LBD) of ERα (residues 246-595) (UniProt P03372); assay: GST pull-down (FIG. 6C)
[3] = biological target: GST-fusion protein with the ligand-binding domain (LBD) of ERα (residues 246-595) (UniProt P03372); assay: GST pull-down from protein extracts of cells overexpressing IEBP, SDS-PAGE and blot with anti-hsp27 antibody

binding [1]: binds
binding [2]: binds
binding [3]: binds
B1: intracellular estradiol binding protein (IEBP) of New World primate B95-8 cells (other)
chain: MTERHVPFSLLQSPSWDPFRDWYPHSHLFDQAFGMPRLPEEWSQWFGTSSWPGYVRPLPPTTVEGPAVAAPAYSRALNQQLSSGVSETADRWRVSLDVNHFAPEELTVKTKDGVVEITGKHEERQDEHGFISRCFTRKYSLPPGVDPTQVSPSLSPEGTLTVDAPMSKPATQSNEITIPVTFESRAQLGGPEAAKSDRSAAK
notes: also called hsp27-like IEBP; hsp 27-related IEBP
